Among the data in article PMC10552648 are binding values, retold here.

Results are given in words; binding and its absence hold for the method and conditions named. Binding seen in cells or lysates may run through a third protein. Some results given as binding are weak or reduced against the parent protein; the word gives no strength. Where a sequence is shown, tags or fusion partners need not be part of it.

The target in the assay is FLAG-p62 WT (human) (UniProt Q13501). As to the kind of experiment: co-IP; HA-ZDHHC19 and FLAG-p62 co-expressed; FLAG-p62 IP in HEK293T cells, HA-ZDHHC19 IP in NRK cells; lysis buffer 50 mM Tris-HCl pH 7.5, 150 mM NaCl, 1% NP-40; protein A/G magnetic beads, 4°C overnight.

B1: HA-ZDHHC19 (enzyme, UniProt Q810M5 1-347)
chain: MPFLKDAVTLVKEPQQLPSIPLSWFPSSVFAAFNVTLLLFLSGLFFGFPCRWLVQNGEWAFPAITGPLFILTFFSLVSLNFSDPGILHRGSTKEDPMTVHVVRVNQRAFRLEWCPKCLFHRPPRTYHCPWCNICVEDFDHHCKWVNNCIGHRNFRLFMLLVLSLCLYSGALLVTCLTFLFRTRHLPFSLDKGMAILVAVPAAGFLIPLFLLLLIQALSVSRAESSYESKCRYHPEYNPFDQGFAKNWYLAMFAPLGPNYMSEVVCLQRPVGTAWIQEKTKPSPPRRPKHCRPGPPGPQHQPRRVPGKGPPGSGEAAALQEMRRLPASVEKSPGGPRQPTAEPAAGDP
B1: the binding entry was “binds”.
